# Source: PubChem BioAssay AID504808 (Drosophila RNAi Screening Center, 2011)
# Assay: 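Chromatin factors that keep E2F targets switched off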 (primary screen)
# Cell system: Drosophila S2 cells
# Knock-down reagent: long dsRNA against Drosophila genes
# Read-out: 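Dual luciferase plate measurements; E2F-specific signal taken as firefly over Renilla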
# Reading the numbers: E2F firefly: higher = more E2F reporter activity; Renilla normaliser: higher = more normaliser reporter signal
# Active means: 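a knock-down counted as active when the firefly/Renilla E2F signal rose above 50%, a threshold chosen arbitrarily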
# The screen tested about 21,000 reagents; below is an unselected part of those that have a named target and a result. In the full data, 18 (0.084%) got an active call. 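Raw counts without plate normalisation, one of two replicates; the ratio scores behind the calls were not deposited.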 Entries without a mark were called inactive. Reagents against one gene are numbered here. Names joined by + are all predicted targets of the reagent. The record does not give: the amount of reagent, the time to read-out.
target gene,dsRNA no.,"E2F firefly, rep 1","Renilla normaliser, rep 1"
Vps13D,1,1.26e5,6589
Vps13D,2,1.39e5,6673
moody,1,1.17e5,6174
ENGase,1,46697,3054
ENGase,2,1.97e5,8386
CG42521,1,1.13e5,5423
jagn,1,74504,4277
CG13847,1,68393,3331
IntS11,1,1696,952
CG12507,1,2.20e5,5918
CG17344,1,87005,3929
CG30047,1,1.32e5,4588
Tsp42A,1,1.24e5,4593
ND-B14.5B,1,1.46e5,5122
CG34171,1,1.30e5,4828
CR12628 + Mgstl,1,1.08e5,4437
CR12628 + Mgstl,2,1.42e5,154
baf,1,1.62e5,4980
ey,1,53761,4188
Msh6,1,1.64e5,7627
Rsph3,1,77701,3794
Rsph3,2,96237,3959
Buffy,1,92847,3771
Cda5,1,1.33e5,5125
Cda5,2,1.54e5,5392
Cda5,3,1.66e5,5748
CG16986,1,93954,4054
CG7849,1,1.17e5,4964
mbf1,1,73868,3016
Prosbeta4,1,86163,4449
CG14760,1,1.42e5,4600
Chrac-16,1,97935,6448
NimC1,1,98773,4142
CG8160,1,1.01e5,3930
Parp1,1,1.71e5,5855
Parp1,2,1.15e5,4275
Parp1,3,98510,4190
Bicra,1,97533,5629
alpha-Man-IIb,1,72129,3877
CG8100,1,1.67e5,7109
mRpS7,1,86011,3129
gas,1,98783,4311
Jhbp13,1,1.14e5,4829
CG4572,1,86087,4323
Prx6c,1,1.60e5,5126
Osi1,1,1.14e5,4937
CG32638,1,91545,2882
CG9717,1,1.30e5,6850
fan,1,1.00e5,3831
Ppm1,1,93615,4503
Cnep1r1,1,1.42e5,5219
Prosbeta4R1,1,1.72e5,6510
PAN3,1,72743,3014
Iru,1,53212,3363
Cmtr1,1,1.17e5,5896
CG32100,1,1.22e5,5292
CG32100,2,1.18e5,6398
